Data from PubChem BioAssay AID328 (DTP/NCI, 2004).
The list is a part of this screen's results and no random one: it gathers tests that were run many times, whatever their T/C, doses with no T/C, and many T/C values between a quarter and a half above the control. Further doses and runs are listed elsewhere. T/C gives the treated animals as a percentage of the vehicle group. Some doses have a count of surviving animals in place of a T/C: the source files T/C as zero there, which appears to mark a toxic dose or a test without result, not a measured value. Some survivor counts are full or nearly so, which does not show that the dose was tolerated: survival well below the control is almost never listed, so the zero probably covers shortened survival too. Counts of survivors are from the toxicity check (mostly the fifth day) where no day follows; animals may have died later. Schedule codes are those of the source, read here as Q, the interval in days (D) or hours (H), X, the number of doses. Some entries were tested several times; the results are listed from low to high. Where survival is the endpoint, the PubChem record calls one and a half times the control and up active, and a quarter to a half above the control has no call in these data; cut-offs in other NCI protocols can differ. Some T/C values are followed by the survivors on the day toxicity was checked, most often the fifth; without a count, all were alive then.

System: BDF1 mice, P388 leukemia ip, median survival T/C
Assay: NCI In Vivo Anticancer Drug Screen. Data for tumor model P388 Leukemia (intraperitoneal) in B6D2F1 (BDF1) mice
Conditions: T/C endpoint: median survival time, higher T/C = longer survival
How it was run: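 Compound-treated tumour-bearing mice were compared with vehicle-treated controls. Survival was recorded, and the value is the treated-group measurement divided by the control-group measurement (T/C).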

[1] = dose: 50.0 mg/kg/injection, schedule: Q01DX010 (ip), vehicle: saline
[2] = dose: 100.0 mg/kg/injection, schedule: Q01DX010 (ip), vehicle: saline
[3] = dose: 200.0 mg/kg/injection, schedule: Q01DX010 (ip), vehicle: saline
[4] = dose: 100.0 mg/kg/injection, schedule: Q01DX009 (ip), vehicle: saline with Tween-80
[5] = dose: 200.0 mg/kg/injection, schedule: Q01DX009 (ip), vehicle: saline with Tween-80
[6] = dose: 400.0 mg/kg/injection, schedule: Q01DX009 (ip), vehicle: saline with Tween-80
[7] = dose: 400.0 mg/kg/injection, schedule: Q04DX003 (ip), vehicle: saline
[8] = dose: 200.0 mg/kg/injection, schedule: Q04DX003 (ip), vehicle: saline with Tween-80
[9] = dose: 400.0 mg/kg/injection, schedule: Q04DX003 (ip), vehicle: saline with Tween-80
[10] = dose: 100.0 mg/kg/injection, schedule: Q04DX003 (ip), vehicle: saline with Tween-80

`CCOC(=O)c1ccc(NC(=O)CCl)cc1` was tested, and the survivor count [1] was 6 of 6, the survivor count [2] was 6 of 6 and the survivor count [3] was 6 of 6. For the same compound, the survivor count (dose: 400.0 mg/kg/injection, schedule: Q01DX010 (ip), vehicle: saline) was 0 of 6.

For `COc1ccc(CC2=NCCc3cc(OC)c(OC)cc32)cc1OC`, the T/C (dose: 50.0 mg/kg/injection, schedule: Q01DX009 (ip), vehicle: saline) was 146 % of control.

In the case of `O=C1OC(=O)C2C3C=CC(O3)C12` (stereo unspecified), the survivor count (dose: 6.25 mg/kg/injection, schedule: Q01DX009 (ip), vehicle: saline) is reported as 6 of 6, the survivor count (dose: 55.0 mg/kg/injection, schedule: Q01DX009 (ip), vehicle: saline) is reported as 1 of 6 and the survivor count (dose: 80.0 mg/kg/injection, schedule: Q01DX009 (ip), vehicle: saline) is reported as 0 of 6.

For `CCCCN(CCCC)CCC(O)c1cc(-c2ccc(C(F)(F)F)cc2)nc(C(F)(F)F)c1` (stereo unspecified), the survivor count [4] was 5 of 6 and the survivor count [5] was 2 of 6.

`CC(C)(N)CCC(C)(C)NCCCN` was tested, and the survivor count (dose: 300.0 mg/kg/injection, schedule: Q01DX009 (ip), vehicle: water) was 6 of 6.

In the case of `CC(C)NCC(=O)c1ccc(O)c(O)c1`, the T/C [5] is reported as 127 % of control, the T/C (dose: 264.0 mg/kg/injection, schedule: Q01DX009 (ip), vehicle: saline with Tween-80) is reported as 138 % of control [4 of 6 alive] and the T/C [6] is reported as 140 % of control. The survivor count [6] was 2 of 6 and the survivor count (dose: 600.0 mg/kg/injection, schedule: Q01DX009 (ip), vehicle: saline with Tween-80) was 0 of 6.

In the case of `CCS(=O)(=O)OCCCl`, the survivor count (dose: 66.0 mg/kg/injection, schedule: Q01DX009 (ip), vehicle: saline) is reported as 6 of 6, the T/C (dose: 150.0 mg/kg/injection, schedule: Q01DX009 (ip), vehicle: saline) is reported as 136 % of control [5 of 6 alive] and the survivor count (dose: 200.0 mg/kg/injection, schedule: Q01DX009 (ip), vehicle: Klucel (hydroxypropylcellulose) (HPC)) is reported as 2 of 6. The survivor count (dose: 200.0 mg/kg/injection, schedule: Q01DX009 (ip), vehicle: saline) was 4 of 6 and the survivor count [7] was 0 of 6.

In the case of `CC1=C(C#N)C(C)(C)C(C#N)=C(C)N1C`, the survivor count (dose: 200.0 mg/kg/injection, schedule: Q01DX009 (ip), vehicle: distilled water + Tween-80) is reported as 2 of 6.

For `COc1cccc2c1C(=O)c1c(O)c3c(c(O)c1C2=O)CC(O)(C(=O)C(C)C)CC3OC1CC(N)C(O)C(C)O1` (stereo unspecified), the survivor count (dose: 150.0 mg/kg/injection, schedule: Q04DX003 (ip), vehicle: water) was 0 of 3.

In the case of `CCCCCCCOC(C[N+](=O)[O-])C(Cl)(Cl)Cl` (stereo unspecified), the survivor count (dose: 75.0 mg/kg/injection, schedule: Q01DX009 (ip), vehicle: saline with Tween-80) is reported as 3 of 6, the survivor count (dose: 115.0 mg/kg/injection, schedule: Q01DX009 (ip), vehicle: saline with Tween-80) is reported as 0 of 6 and the survivor count (dose: 170.0 mg/kg/injection, schedule: Q01DX009 (ip), vehicle: saline with Tween-80) is reported as 0 of 6. For the same compound, the survivor count (dose: 225.0 mg/kg/injection, schedule: Q04DX003 (ip), vehicle: saline) was 6 of 6 and the survivor count (dose: 340.0 mg/kg/injection, schedule: Q04DX003 (ip), vehicle: saline) was 6 of 6.

For `CSCS(=O)C[C@H](CO)NC(=O)/C=C/c1c(C)[nH]c(=O)[nH]c1=O` (stereo partly specified), the T/C (dose: 1.44 mg/kg/injection, schedule: Q04DX003 (ip), vehicle: saline) was 144 % of control, the T/C (dose: 1.56 mg/kg/injection, schedule: Q04DX002 (ip), vehicle: Klucel (hydroxypropylcellulose) (HPC)) was 125 % of control and the T/C (dose: 2.0 mg/kg/injection, schedule: Q04DX003 (ip), vehicle: saline) was 132 % of control. The survivor count (dose: 4.0 mg/kg/injection, schedule: Q04DX003 (ip), vehicle: saline) was 7 of 8 and 8 of 8, the survivor count (dose: 8.0 mg/kg/injection, schedule: Q04DX003 (ip), vehicle: saline) was 1 of 8 and the survivor count (dose: 16.0 mg/kg/injection, schedule: Q04DX003 (ip), vehicle: saline) was 0 of 8. The survivor count (dose: 800.0 micrograms/kg/injection, schedule: Q01DX009 (ip), vehicle: saline) was 6 of 8.

`Clc1ccc(-c2cc(=[N+]3CCCCC3)ss2)cc1` was tested, and the survivor count (dose: 6.25 mg/kg/injection, schedule: Q04DX003 (ip), vehicle: saline with Tween-80) was 6 of 6, the survivor count (dose: 12.5 mg/kg/injection, schedule: Q01DX009 (ip), vehicle: saline with Tween-80) was 3 of 6 and the survivor count [4] was 6 of 6. For the same compound, the survivor count [5] was 0 of 6, the survivor count [8] was 4 of 6 and the survivor count [9] was 0 of 6.

With `[Cl][Pt+2]([Cl])([Cl])[Cl].[Na+].[S-]c1ncnc2nc[nH]c12.[S-]c1ncnc2nc[nH]c12` the T/C (dose: 132.0 mg/kg/injection, schedule: Q01DX009 (ip), vehicle: saline with Tween-80) was 140 % of control and the T/C [5] was 125 and 127 % of control.

With `N#CCCNCCC#N` the survivor count [7] was 6 of 6.

In the case of `CCCCCCNP(=O)(N1CC1)N1CC1`, the survivor count [10] is reported as 5 of 6, the survivor count [8] is reported as 0 of 6 and the survivor count [9] is reported as 0 of 6.

For `Nc1c(Br)cc(Br)cc1Br`, the T/C (dose: 50.0 mg/kg/injection, schedule: Q01DX009 (ip), vehicle: Klucel (hydroxypropylcellulose) (HPC)) was 138 % of control.

For `CCCOP(=S)(N1CC1C)N1CC1(C)C` (stereo unspecified), the T/C (dose: 66.0 mg/kg/injection, schedule: Q04DX003 (ip), vehicle: saline with Tween-80) was 145 % of control and the survivor count [9] was 4 of 6.

With `CNC(C)(C)C(SS)c1ccc(Cl)cc1` (stereo unspecified) the survivor count [4] was 0 of 6 and the survivor count [10] was 5 of 6.

In the case of `CCOC(=O)C(Cc1ccccc1)P(=O)(OCC)OCC` (stereo unspecified), the survivor count [6] is reported as 2 of 6.

With `CC(C)Cn1c(Cl)c(/C=N\Nc2ccccc2[N+](=O)[O-])c2ccccc21` the survivor count (dose: 400.0 mg/kg/injection, schedule: Q04DX002 (ip), vehicle: Klucel (hydroxypropylcellulose) (HPC)) was 5 of 6.

`C=C1C(C)C2C(Cc3ccccc3)NC(=O)C23C(OC(C)=O)C=CC(C)(O)C(=O)C(C)C/C=C/C3C1O` (stereo unspecified) was tested, and the T/C (dose: 2.5 mg/kg/injection, schedule: Q01DX009 (ip), vehicle: saline with Tween-80) was 130 % of control, the survivor count (dose: 3.7 mg/kg/injection, schedule: Q01DX009 (ip), vehicle: saline) was 6 of 6 and the survivor count (dose: 5.0 mg/kg/injection, schedule: Q01DX009 (ip), vehicle: saline with Tween-80) was 1 of 6.

In the case of `C/C=C/c1ccc2ccc[n+](C)c2c1O`, the T/C (dose: 100.0 mg/kg/injection, schedule: Q04DX003 (ip), vehicle: saline sonified) is reported as 125 % of control.

For `OCC(Br)(Br)Br`, the survivor count (dose: 400.0 mg/kg/injection, schedule: Q01DX009 (ip), vehicle: other) was 0 of 6.

`C#CCOCC(O)CO` (stereo unspecified) was tested, and the survivor count (dose: 200.0 mg/kg/injection, schedule: Q04DX003 (ip), vehicle: water) was 2 of 6 and the survivor count (dose: 400.0 mg/kg/injection, schedule: Q01DX009 (ip), vehicle: water) was 0 of 6.

`COC(=O)c1cc(=O)nc(N/N=C/c2ccc3c(c2)OCO3)s1` was tested, and the survivor count (dose: 100.0 mg/kg/injection, schedule: Q01DX005 (ip), vehicle: saline with Tween-80) was 5 of 5.

With `CN(N=O)C(=O)NC(C=O)C(O)C(O)C(O)CO` (stereo unspecified) the T/C [1] was 131 % of control, the survivor count [2] was 6 of 6 and the survivor count [3] was 3 of 6.

`Cc1ccc(C(=S)NC(=O)Nc2ccccc2)cc1` was tested, and the survivor count (dose: 400.0 mg/kg/injection, schedule: Q01DX001 (ip), vehicle: saline with Tween-80) was 6 of 6.
